PubChem BioAssay AID743454, Peter MacCallum Cancer Centre | 2014
Aim: 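Search for knock-downs that restore vorinostat killing in resistant colon cancer cells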 (primary screen). Cells: human HCT116-VR colon cancer cells, selected for vorinostat resistance. Knock-down reagent: siRNA pool against human genes, 40 nM siRNA pool. Duration: vorinostat for 24 h, read-out about 72 h after transfection. Challenge: vorinostat at 2.5 µM final. Measurement: 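Cell viability by CellTiter-Fluor and caspase 3/7 activity by luminescence, each scaled to mock wells per plate, duplicates averaged, then robust z-scored over all plates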. Direction: viability robust z-score: higher = more viable cells than screen typical; caspase robust z-score: higher = more caspase 3/7 activity than screen typical. Hit rule: 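Hits are knock-downs in viability class RV1/RV2 or caspase class CA1/CA2, excluding ones that killed cells in the no-drug cell-count arm; hits then retested with single siRNAs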.
The deposit covers about 18,000 reagents; below is an unselected part. Over the whole deposit, 450 (2.5%) got an active call. 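Single biological run; no consistent viability z cut-off exists, so the class columns, not z-scores, define the calls.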

gene knocked down	viability hit class	caspase hit class	viability robust z-score	caspase robust z-score	call
GNA12 (G protein subunit alpha 12)	no change	no change	-0.84	5.03	inactive
SOHLH1	no change	no change	1.49	2.04	inactive
ZNF438 (zinc finger protein 438)	no change	no change	-0.92	3.88	inactive
PMVK (phosphomevalonate kinase)	no change	no change	-1.75	1.41	inactive
NCAPG (non-SMC condensin I complex subunit G)	no change	no change	0.71	-0.32	inactive
VSTM2A (V-set and transmembrane domain containing 2A)	no change	no change	0.04	-0.65	inactive
HELB (DNA helicase B)	no change	no change	0.25	-0.86	inactive
PDLIM5 (PDZ and LIM domain 5)	no change	no change	1.36	1.46	inactive
IRF9 (interferon regulatory factor 9)	no change	no change	-1.38	0.06	inactive
FAM181A (family with sequence similarity 181 member A)	no change	no change	0.62	3.1	inactive
FKBP9 (FKBP prolyl isomerase 9)	no change	no change	0.12	-0.75	inactive
DOCK8 (dedicator of cytokinesis 8)	no change	no change	1.07	1.73	inactive
TCTN2 (tectonic family member 2)	no change	no change	0.85	-0.34	inactive
ARPC3 (actin related protein 2/3 complex subunit 3)	no change	no change	0.05	-0.4	inactive
ARHGDIA (Rho GDP dissociation inhibitor alpha)	no change	no change	-0.78	-1.06	inactive
ERRFI1 (ERBB receptor feedback inhibitor 1)	no change	no change	-0.71	-0.37	inactive
ZNF322 (zinc finger protein 322)	no change	no change	-2.07	4.73	inactive
COQ2 (coenzyme Q2, polyprenyltransferase)	no change	no change	-1.3	1.68	inactive
GTF3C2 (general transcription factor IIIC subunit 2)	no change	no change	0.11	1.82	inactive
TMEM39A (transmembrane protein 39A)	no change	no change	-0.36	-0.45	inactive
PLRG1 (pleiotropic regulator 1)	no change	no change	-1.79	0.32	inactive
CAMK2B (calcium/calmodulin dependent protein kinase II beta)	no change	no change	0.4	2.7	inactive
CDR1 (cerebellar degeneration related 1)	no change	no change	-0.99	-1.06	inactive
TXLNB (taxilin beta)	no change	no change	-0.07	0.94	inactive
SNRPA (small nuclear ribonucleoprotein polypeptide A)	no change	no change	-1.46	1.61	inactive
SPRED1 (sprouty related EVH1 domain containing 1)	no change	no change	0.87	-0.5	inactive
SMIM8 (small integral membrane protein 8)	no change	no change	0	0.24	inactive
LRRC37A (leucine rich repeat containing 37A)	no change	no change	-0.53	-0.92	inactive
CDCP2 (CUB domain containing protein 2)	no change	no change	-0.85	1.56	inactive
UBE2M (ubiquitin conjugating enzyme E2 M)	no change	CA2 (caspase activation)	-1.57	6.74	active
SNAP23 (synaptosome associated protein 23)	no change	no change	-0.68	1.36	inactive
RNF212 (ring finger protein 212)	no change	no change	0.05	-1.17	inactive
TMEM94 (transmembrane protein 94)	no change	no change	-0.48	0.5	inactive
ZNF326 (zinc finger protein 326)	no change	no change	1.2	-0.74	inactive
CUX1 (cut like homeobox 1)	no change	no change	0.48	-0.2	inactive
BICDL1 (BICD family like cargo adaptor 1)	RV2 (reduced viability)	no change	-3.5	-1.25	active
POLE4 (DNA polymerase epsilon 4, accessory subunit)	no change	no change	-1.11	-0.6	inactive
LTA4H (leukotriene A4 hydrolase)	no change	no change	0.2	1.23	inactive
LAMA4 (laminin subunit alpha 4)	no change	no change	-1.75	1.9	inactive
ASGR1 (asialoglycoprotein receptor 1)	no change	no change	-1.74	0.71	inactive
ASB6 (ankyrin repeat and SOCS box containing 6)	no change	no change	1.12	-0.19	inactive
VMA12 (vacuolar ATPase assembly factor VMA12)	no change	no change	-0.28	-0.86	inactive
MEX3C (mex-3 RNA binding family member C)	no change	no change	-0.84	4.2	inactive
ZNF511 (zinc finger protein 511)	no change	no change	0.19	-0.3	inactive
ATAD3C (ATPase family AAA domain containing 3C)	no change	no change	-0.02	-1	inactive
ZNFX1 (zinc finger NFX1-type containing 1)	no change	no change	-0.35	0.18	inactive
SENP2 (SUMO specific peptidase 2)	no change	no change	-0.7	1.57	inactive
DOLK (dolichol kinase)	no change	no change	0.4	-0.65	inactive
ENDOV (endonuclease V)	no change	no change	0.48	-0.19	inactive
POLR3A (RNA polymerase III subunit A)	no change	no change	-2.38	-1.14	inactive
TMEM230 (transmembrane protein 230)	no change	no change	-0.29	-1.02	inactive
COPB1 (coat protein complex I subunit beta 1)	no change	no change	-3.57	4	inactive
NOS3 (nitric oxide synthase 3)	no change	no change	-1.46	-0.2	inactive
USP9Y (ubiquitin specific peptidase 9 Y-linked)	no change	no change	-0.38	1.62	inactive
ACSL4 (acyl-CoA synthetase long chain family member 4)	no change	no change	1.34	-0.16	inactive
ALKBH6 (alkB homolog 6, nucleotide demethylase)	no change	no change	-1.48	3.57	inactive
FGD1 (FYVE, RhoGEF and PH domain containing 1)	no change	no change	-0.81	-0.05	inactive

9 successive entries from above:
gene knocked down	viability hit class	caspase hit class	viability robust z-score	caspase robust z-score	call
HELB (DNA helicase B)	no change	no change	0.25	-0.86	inactive
PDLIM5 (PDZ and LIM domain 5)	no change	no change	1.36	1.46	inactive
IRF9 (interferon regulatory factor 9)	no change	no change	-1.38	0.06	inactive
FAM181A (family with sequence similarity 181 member A)	no change	no change	0.62	3.1	inactive
FKBP9 (FKBP prolyl isomerase 9)	no change	no change	0.12	-0.75	inactive
DOCK8 (dedicator of cytokinesis 8)	no change	no change	1.07	1.73	inactive
TCTN2 (tectonic family member 2)	no change	no change	0.85	-0.34	inactive
ARPC3 (actin related protein 2/3 complex subunit 3)	no change	no change	0.05	-0.4	inactive
ARHGDIA (Rho GDP dissociation inhibitor alpha)	no change	no change	-0.78	-1.06	inactive
